Measurements taken from PubChem BioAssay AID1487 (National Center for Advancing Translational Sciences (NCATS), 2009).
The other results are listed elsewhere or left out. The main result of the screen is listed elsewhere. These columns were measured beside it and carry no call. The list favours compounds with an active or inconclusive main result. The note in brackets gives the kind of curve behind each potency; many fits are weak.

Assay: qHTS Assay for Modulators of Lamin A Splicing
Conditions: HeLa LMNA splicing GFP/RFP minigene ratio, 48 h
Summary of the method: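 Read-out is the ratio of GFP to DsRed2 object intensity, acquired by 488 nm laser-scanning cytometry on HeLa lamin A-EGFP minigene reporter cells. Compound incubation 48 hrs at 37 °C in Opti-MEM with 2% FBS; DMSO 0.5% final.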

[1] = measured here: RFP viability control channel
[2] = measured here: GFP splicing reporter channel

Compound | AC50 [1] | AC50 [2]
CCOC(=O)c1c(C)nc2c(c1-c1ccc(Cl)cc1)C(=O)CC(C)(C)C2 | 35.5 µM [rising, single point] | –
CCOc1ccc(CCn2c(-c3ccco3)nc3ccccc3c2=O)cc1OCC | 11.2 µM [rising, partial curve] | 0.224 µM [falling, full curve]
CCCCCCOc1ccc(N2C(=O)CC(N3CCN(CCN=CC4=C(O)CC(C)(C)CC4=O)CC3)C2=O)cc1 (stereo not given) | 0.0891 µM [falling, full curve, poor fit] | –
Cc1cccc(NC(=S)/N=C(\N)Nc2nc(C)c3cc(C)ccc3n2)c1 | 0.00447 µM [rising, full curve, poor fit] | –
CCOC(=O)c1cnn(Cc2ccc(C)cc2)c1N | 17.8 µM [falling, partial curve, poor fit] | –
Cc1ccc2nc(C3CCN(S(=O)(=O)c4ccc5ccccc5c4)CC3)[nH]c2c1 | 17.8 µM [rising, partial curve] | 11.2 µM [rising, partial curve]
CCCCOC(=O)C1[C@H]2C(=O)N(CCc3ccccc3)C[C@]23C=C[C@H]1O3 (stereo not given in full) | 0.0794 µM [falling, full curve, poor fit] | –
CCOc1ccc(NC(=O)C2CCC(N3C(=O)C4CC=CCC4C3=O)CC2)cc1 (stereo not given) | 20 µM [rising, single point] | 14.1 µM [rising, single point]
COc1ccccc1-c1nnc2sc(-c3ccc(N(C)C)cc3)nn12 | – | 2.24 µM [falling, full curve, poor fit]
CC(C)(C)OC(=O)NCCc1nnc(SCc2ccccc2Cl)o1 | 20 µM [rising, partial curve, poor fit] | –
CCOC(=O)c1c(-c2ccc(C)cc2)csc1NC(=S)NC(=O)c1ccccc1 | 6.31 µM [rising, full curve] | –
Cc1ccc(NC(=O)CSc2nc3ccc(NC(=O)COc4ccc(C)cc4)cc3s2)cc1 | 11.2 µM [falling, partial curve] | 17.8 µM [falling, partial curve]
O=C(Cn1nc(CNc2ccc(Cl)cc2)[n+]2c1CCCCC2)c1ccc(Br)cc1 | 31.6 µM [rising, partial curve, poor fit] | –
Cc1ccc(NC(=O)c2c(O)c3ccccc3n(C)c2=O)nc1 | 35.5 µM [rising, single point] | –
CO/N=C/C(NC(=O)c1ccc(C(F)(F)F)cc1)C(=O)OC (stereo not given) | – | 0.00501 µM [falling, full curve, poor fit]
Cc1cc(C)n(C(=O)CNC(=O)CCc2ccccc2)n1 | 0.0316 µM [falling, full curve, poor fit] | –
Brc1ccc(C2=CSC3=NCCN23)cc1 | – | 0.282 µM [falling, full curve]
O=C(Nc1nnc(C2CC(=O)N(c3ccc(Cl)cc3)C2)s1)c1ccco1 (stereo not given) | 0.02 µM [falling, full curve] | –
COc1cc(NC(=S)Nc2ccccn2)cc(OC)c1 | 0.0251 µM [rising, full curve, poor fit] | 4.47 µM [rising, partial curve, poor fit]
O=C(Nc1ccc2c(c1)C(=O)N(CC1CCCO1)C2=O)c1cccc(Br)c1 (stereo not given) | – | 17.8 µM [rising, partial curve, poor fit]
COc1ccc(/C=N/NC(=O)C2(C)NC(C)(C)Cc3ccccc32)cc1 (stereo not given) | 0.794 µM [falling, partial curve, poor fit] | 1 µM [falling, single point]
COCC(=O)N1CCc2nc(-c3ccc(OC)cc3C)c3c(c2C1)CO[C@@H](c1ccccc1)C3 | 0.355 µM [falling, partial curve] | 5.62 µM [falling, single point]
CC(C)(C)c1nnc2sc(SCC(=O)c3ccc(Cl)cc3)nn2c1=O | 35.5 µM [rising, single point] | 35.5 µM [rising, single point]
C(=N\Nc1ncnc2sc3c(c12)CCC3)/c1ccncc1 | 0.0562 µM [falling, partial curve, poor fit] | 0.0891 µM [falling, partial curve, poor fit]
O=c1[nH]c(/C(Cl)=C/c2cc(Cl)ccc2O)nc2cc(Cl)ccc12 | 2.24 µM [rising, single point] | 35.5 µM [falling, single point]
O=C(Cc1ccccc1)N/N=C/c1cccn1-c1ccc([N+](=O)[O-])cc1 | 22.4 µM [rising, single point] | 0.2 µM [rising, full curve, poor fit]
Cc1ccc(-c2nc3ncccn3c2NC2CCCC2)o1 | – | 0.398 µM [falling, full curve, poor fit]

3 entries out of the list, sorted by molar mass, descending.
Compound | AC50 [1] | AC50 [2]
O=C(Cn1nc(CNc2ccc(Cl)cc2)[n+]2c1CCCCC2)c1ccc(Br)cc1 | 31.6 µM [rising, partial curve, poor fit] | –
CCOC(=O)c1c(-c2ccc(C)cc2)csc1NC(=S)NC(=O)c1ccccc1 | 6.31 µM [rising, full curve] | –
Cc1ccc(-c2nc3ncccn3c2NC2CCCC2)o1 | – | 0.398 µM [falling, full curve, poor fit]

More records follow.

Compound | AC50 [1] | AC50 [2]
COc1cc(Cl)c(C)cc1NC(=O)CSc1cc(-c2ccccc2)nc(C)n1 | 3.98 µM [rising, partial curve] | 0.224 µM [rising, partial curve, poor fit]
Cc1ccc(Cn2nnnc2CN2CCC(c3nc4ccc(Cl)cc4[nH]3)CC2)cc1 | 0.447 µM [rising, full curve, poor fit] | –
CC(C)(C)c1ccc(CN(Cc2ccccc2)C(c2ccccn2)c2nnnn2C(C)(C)C)cc1 (stereo not given) | 14.1 µM [rising, partial curve] | 11.2 µM [rising, partial curve, poor fit]
O=C1C2C3C=CC(C3)C2C(=O)N1/N=C/c1cc(Br)cc([N+](=O)[O-])c1O (stereo not given) | 14.1 µM [rising, single point] | –
COc1ccc(C(=O)CSc2nnc(CNc3ccc(C)cc3C)n2Cc2ccco2)cc1 | 25.1 µM [rising, single point] | –
CCN(CC(=O)NC(C)(C)C)C(=O)c1ccc(Br)cc1 | 0.00447 µM [falling, full curve, poor fit] | –
CCCNc1nc(Nc2ccc(C)cc2)nc(N2CCCC2)n1 | 14.1 µM [rising, single point] | –
COc1ccc(-c2nc(C)c(CCNC(=O)c3c(F)cccc3F)s2)cc1 | 20 µM [falling, single point] | –
Cn1c(=O)n(C)c2cc(S(=O)(=O)Nc3ccccc3)ccc21 | 12.6 µM [falling, single point] | 35.5 µM [falling, single point]
CC(C)Oc1ccc(Cn2c(=O)sc3ccccc32)cc1 | 35.5 µM [rising, single point] | –
CCOC(=O)N1CCC(N2CCN(S(=O)(=O)c3ccc(OC)cc3)CC2)CC1 | – | 0.01 µM [falling, full curve, poor fit]
C/C(=N\NC(=O)c1ccc(CN2CCOCC2)cc1)c1ccc([N+](=O)[O-])cc1 | 0.0794 µM [falling, full curve, poor fit] | –
O=C(Nc1ccc(S(=O)(=O)Nc2ccccc2)cc1)c1ccc(CN2CCOCC2)cc1 | 2.51 µM [falling, full curve, poor fit] | 2.51 µM [falling, full curve, poor fit]
COc1ccc(OC)c(NC(=O)CSC2=Nc3ccccc3C3=NC(CC(=O)NCc4ccc(F)cc4)C(=O)N23)c1 (stereo not given) | – | 12.6 µM [rising, single point]
O=C(OCCNc1nc(-c2ccccc2)nc2ccccc12)c1ccncc1 | 0.0355 µM [rising, full curve, poor fit] | –
O=C(CN1CCN(Cc2ccc(Cl)cc2)C1=O)NCCCN1CCN(c2ccc(F)cc2)CC1 | 14.1 µM [rising, single point] | 14.1 µM [rising, single point]
O=C(N/N=C/c1cccc(Oc2ccc([N+](=O)[O-])cc2[N+](=O)[O-])c1)c1cncc(Br)c1 | 35.5 µM [falling, single point] | 17.8 µM [falling, single point]
CC(=O)Nc1cccc(N=NN2CCCCC2)c1 | – | 0.0355 µM [rising, full curve, poor fit]
Cc1noc(C)c1-c1ccc2ncnc(Nc3ccc(F)cc3)c2c1 | 14.1 µM [falling, partial curve] | 11.2 µM [falling, partial curve]
CCCCn1c(NC(=O)c2ccco2)c(S(=O)(=O)c2ccc(C)cc2)c2nc3ccccc3nc21 | 31.6 µM [rising, single point] | 15.8 µM [rising, single point]
Cc1ccsc1C1C=C(c2cccc(Br)c2)Nc2ncnn21 (stereo not given) | 5.62 µM [rising, single point] | 5.62 µM [rising, single point]
COc1ccccc1NC(=O)C(CC=C(Cl)Cl)C(C)=O (stereo not given) | – | 11.2 µM [rising, single point]
Fc1ccccc1COc1ccc2ccccc2c1CNc1nn[nH]n1 | 35.5 µM [rising, single point] | –
COc1ccc(CCNC(=O)c2cc(-c3ccccc3OC)on2)cc1OC | 15.8 µM [rising, partial curve] | 11.2 µM [rising, single point]
O=C(NCCOCCNC(=O)OCc1ccccc1)OCc1ccccc1 | 10 µM [falling, partial curve] | –
Cc1c(/C(O)=C2\C(=O)C(=O)N(CCN(C)C)C2c2cccs2)cnn1-c1ccccc1 (stereo not given) | 31.6 µM [rising, single point] | –
N#C/C(=C(\O)CCl)c1nnc2n1CCCCC2 | 0.02 µM [falling, full curve, poor fit] | –

In a second layout: 2 of the compounds above.
CC(C)(C)c1ccc(CN(Cc2ccccc2)C(c2ccccn2)c2nnnn2C(C)(C)C)cc1 (stereo not given)
  AC50 [1]: 14.1 µM [rising, partial curve]
  AC50 [2]: 11.2 µM [rising, partial curve, poor fit]
O=C1C2C3C=CC(C3)C2C(=O)N1/N=C/c1cc(Br)cc([N+](=O)[O-])c1O (stereo not given)
  AC50 [1]: 14.1 µM [rising, single point]
